Taken from: PubChem BioAssay AID1224830 (NIAID, 2016)

Assay: 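Genes whose knock-down alters the TNF-alpha reporter response to LPS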 (primary screen)
Cell system: human THP-1 monocytic leukaemia cells, TNF dual-luciferase reporter clone, PMA-differentiated to macrophage-like cells
Reagents: siRNA pool against human genes, 50 nM
Time to read-out: LPS for 4 h, given about 3 days after siRNA transfection
Challenge: bacterial LPS (TLR4 ligand), 10 ng/ml
Measured: 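TNF firefly reporter luminescence divided by renilla, normalised to the plate median, then turned into a robust z-score for each replicate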
Scale: TNF reporter robust z-score: higher = stronger TNF reporter response to LPS
Call rule: 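Each well counts as active if its z-score is over 2.8 or under -1.5; controls are left without a call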
In all, the deposit lists about 18,000 reagents; shown is a part drawn at random. About 2,900 of all reagents (16%) count as active. 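Calls are made per well; low scores hint the gene aids the LPS response, high scores that it dampens it.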 Repeated entries: four replicate wells of each siRNA pool.

Depletion of BRD10 (bromodomain containing 10) [SID315462657] gave: TNF reporter robust z-score 0.37; inactive.
For BRD10 (bromodomain containing 10) [SID315462657], the values are TNF reporter robust z-score 1.59; inactive.
After knock-down of BRD10 (bromodomain containing 10) [SID315462657], the record shows TNF reporter robust z-score -0.02; inactive.
For BRD10 (bromodomain containing 10) [SID315462657] the deposit lists TNF reporter robust z-score 1.27; inactive.
Depletion of RPL23 (ribosomal protein L23) [SID315453216] resulted in: TNF reporter robust z-score -2.03; active.
For RPL23 (ribosomal protein L23) [SID315453216], the values are TNF reporter robust z-score -1.22; inactive.
Silencing of RPL23 (ribosomal protein L23) [SID315453216] came out at: TNF reporter robust z-score -1.53; active.
For RPL23 (ribosomal protein L23) [SID315453216], the values are TNF reporter robust z-score -1.15; inactive.
Against ATF7IP (activating transcription factor 7 interacting protein) [SID315457806] the deposit lists TNF reporter robust z-score -0.06; inactive.
With knock-down of ATF7IP (activating transcription factor 7 interacting protein) [SID315457806], the screen gave TNF reporter robust z-score -0.14; inactive.
ATF7IP (activating transcription factor 7 interacting protein) [SID315457806] gave TNF reporter robust z-score -0.9; inactive.
After knock-down of ATF7IP (activating transcription factor 7 interacting protein) [SID315457806] the results were TNF reporter robust z-score -0.37; inactive.
Silencing of COX5A (cytochrome c oxidase subunit 5A) [SID315453241] gave: TNF reporter robust z-score 2.02; inactive.
For COX5A (cytochrome c oxidase subunit 5A) [SID315453241], the entry reads TNF reporter robust z-score 1.33; inactive.
Knock-down of COX5A (cytochrome c oxidase subunit 5A) [SID315453241] came out at: TNF reporter robust z-score 0.04; inactive.
With knock-down of COX5A (cytochrome c oxidase subunit 5A) [SID315453241], the record shows TNF reporter robust z-score 1.3; inactive.
After knock-down of HTR3E (5-hydroxytryptamine receptor 3E) [SID315463832], the record shows TNF reporter robust z-score -0.87; inactive.
With knock-down of HTR3E (5-hydroxytryptamine receptor 3E) [SID315463832], the screen gave TNF reporter robust z-score 0.38; inactive.
After knock-down of HTR3E (5-hydroxytryptamine receptor 3E) [SID315463832] the results were TNF reporter robust z-score 0.08; inactive.
After knock-down of HTR3E (5-hydroxytryptamine receptor 3E) [SID315463832], the record shows TNF reporter robust z-score -0.46; inactive.
HTR3E (5-hydroxytryptamine receptor 3E) [SID315463832] gave TNF reporter robust z-score -0.89; inactive.
After knock-down of HTR3E (5-hydroxytryptamine receptor 3E) [SID315463832], the screen gave TNF reporter robust z-score 0.8; inactive.
HTR3E (5-hydroxytryptamine receptor 3E) [SID315463832] showed TNF reporter robust z-score 0.3; inactive.
With knock-down of HTR3E (5-hydroxytryptamine receptor 3E) [SID315463832] the results were TNF reporter robust z-score -0.6; inactive.

4 entries from above, reformatted.
{"target": "BRD10 (bromodomain containing 10)", "PubChem SID": "SID315462657", "TNF reporter robust z-score": 0.37, "call": "inactive"}
{"target": "BRD10 (bromodomain containing 10)", "PubChem SID": "SID315462657", "TNF reporter robust z-score": 1.59, "call": "inactive"}
{"target": "BRD10 (bromodomain containing 10)", "PubChem SID": "SID315462657", "TNF reporter robust z-score": -0.02, "call": "inactive"}
{"target": "BRD10 (bromodomain containing 10)", "PubChem SID": "SID315462657", "TNF reporter robust z-score": 1.27, "call": "inactive"}
